Measured values from the odorant receptor screen of Mainland et al. (2015).
Where “and” joins values, the source holds several entries; their conditions need not be identical. Equal entries are not always repeated. The list shows a part of the results. Single wells; the ratio to wells without odorant was worked out here, and repeats agree poorly.

The compounds below were run on OR10A2 H43R/H207R/K258T clone 1498 (assay: odorant receptor activation (CRE luciferase / Renilla) (fold of no-odor wells); higher = more activation). Settings: 100 µM.

Compound	odorant receptor activation
CCCCCCCCC=O [nonyl aldehyde]	0.909
C=CC(C)(O)CCC=C(C)C (centres undefined) [linalool]	1.12
CC(C)=CCCC(C)=CC=O [citral]	1.21
C=CCc1ccc(O)c(OC)c1 [eugenol]	0.997 and 1.4 and 1.57
CC(C)CCC(=O)O [4-methylvaleric acid]	1.02
COc1cc(C)ccc1O [2-methoxy-4-methylphenol]	0.722
CC1CCC(C(C)C)C(O)C1 (single isomer, unassigned; (+)) [(+)-menthol]	0.921
CCCCCCCC=O [octyl aldehyde]	0.851
CC(C)C(=O)O [isobutyric acid]	0.7 and 1.03
C=C(C)C1CC=C(C)C(=O)C1 (centres undefined) [r-carvone]	0.897
CCCCCCCCCC=O [decyl aldehyde]	1.41
CC1=CCC(C(C)(C)O)CC1 (centres undefined) [terpineol]	0.874
CC(C)C=O [isobutyraldehyde]	0.529 and 1.05
CC(C)CC(=O)O [isovaleric acid]	0.919
CC1CCC(C(C)C)C(O)C1 (single isomer, unassigned; (-)) [(-)-menthol]	0.947
CC12CCC(CC1)C(C)(C)O2 [cineole]	0.778
COC(=O)c1ccccc1O [methyl salicylate]	0.774
CCCCO [1-butanol]	1.03
CCCCCCCC=CC=O [2-decenal]	1.24
CC12CCC(C1)C(C)(C)C2=O (centres undefined) [fenchone]	1.16
CCCC(=O)O [butyric acid]	1.02
c1ccc(Oc2ccccc2)cc1 [diphenyl ether]	1.32
C=CCSCC=C [diallyl sulfide]	1.36
CCCCCCCCCCC=O [undecanal]	1.17
CCCCCCCCOC(C)=O [octyl acetate]	0.909
CC/C=C\CCO [cis-3-hexen-1-ol]	1.15
c1cnccn1 [pyrazine]	0.885
O=C1CCCCCCCCCCCCCCO1 [pentadecalactone]	1.02

What follows are compounds tested on OR10A2 clone 1171 in the same assay as above. Settings: 100 µM.

Compound	odorant receptor activation
CCCCCCCCC=O [nonyl aldehyde]	0.943
C=CC(C)(O)CCC=C(C)C (centres undefined) [linalool]	0.947
CC(C)=CCCC(C)=CC=O [citral]	1.16
C=CCc1ccc(O)c(OC)c1 [eugenol]	2.69 and 1.04
CC(C)CCC(=O)O [4-methylvaleric acid]	0.902
COc1cc(C)ccc1O [2-methoxy-4-methylphenol]	1
CC1CCC(C(C)C)C(O)C1 (single isomer, unassigned; (+)) [(+)-menthol]	1.03
CCCCCCCC=O [octyl aldehyde]	0.93
CC(C)C(=O)O [isobutyric acid]	1.11
C=C(C)C1CC=C(C)C(=O)C1 (centres undefined) [r-carvone]	0.729
CCCCCCCCCC=O [decyl aldehyde]	1.09
CC1=CCC(C(C)(C)O)CC1 (centres undefined) [terpineol]	1.02
CC(C)C=O [isobutyraldehyde]	1.26
CC(C)CC(=O)O [isovaleric acid]	0.86
CC1CCC(C(C)C)C(O)C1 (single isomer, unassigned; (-)) [(-)-menthol]	0.949
CC12CCC(CC1)C(C)(C)O2 [cineole]	0.881
COC(=O)c1ccccc1O [methyl salicylate]	0.704
CCCCO [1-butanol]	1.13
CCCCCCCC=CC=O [2-decenal]	0.941
CC12CCC(C1)C(C)(C)C2=O (centres undefined) [fenchone]	0.862
CCCC(=O)O [butyric acid]	1.04
c1ccc(Oc2ccccc2)cc1 [diphenyl ether]	1.07
C=CCSCC=C [diallyl sulfide]	0.945
CCCCCCCCCCC=O [undecanal]	0.807
CCCCCCCCOC(C)=O [octyl acetate]	0.918
CC/C=C\CCO [cis-3-hexen-1-ol]	0.91
c1cnccn1 [pyrazine]	0.756
O=C1CCCCCCCCCCCCCCO1 [pentadecalactone]	0.717

The compounds below were run on OR10A3 clone 1416 in the same assay as above. Settings: 100 µM.

Compound	odorant receptor activation
CCCCCCCCC=O [nonyl aldehyde]	0.772
C=CC(C)(O)CCC=C(C)C (centres undefined) [linalool]	0.768
CC(C)=CCCC(C)=CC=O [citral]	0.199
C=CCc1ccc(O)c(OC)c1 [eugenol]	1.57 and 1.4
CC(C)CCC(=O)O [4-methylvaleric acid]	0.916
COc1cc(C)ccc1O [2-methoxy-4-methylphenol]	0.785
CC1CCC(C(C)C)C(O)C1 (single isomer, unassigned; (+)) [(+)-menthol]	0.962
CCCCCCCC=O [octyl aldehyde]	0.664
CC(C)C(=O)O [isobutyric acid]	1.04
C=C(C)C1CC=C(C)C(=O)C1 (centres undefined) [r-carvone]	1.17
CCCCCCCCCC=O [decyl aldehyde]	1.77
CC1=CCC(C(C)(C)O)CC1 (centres undefined) [terpineol]	1.09
CC(C)C=O [isobutyraldehyde]	0.905
CC(C)CC(=O)O [isovaleric acid]	0.8
CC1CCC(C(C)C)C(O)C1 (single isomer, unassigned; (-)) [(-)-menthol]	1.28
CC12CCC(CC1)C(C)(C)O2 [cineole]	0.161
COC(=O)c1ccccc1O [methyl salicylate]	1.03
CCCCO [1-butanol]	0.779
CCCCCCCC=CC=O [2-decenal]	0.971
CC12CCC(C1)C(C)(C)C2=O (centres undefined) [fenchone]	0.951
CCCC(=O)O [butyric acid]	0.179
c1ccc(Oc2ccccc2)cc1 [diphenyl ether]	1.16
C=CCSCC=C [diallyl sulfide]	1.14
CCCCCCCCCCC=O [undecanal]	1.07
CCCCCCCCOC(C)=O [octyl acetate]	0.731
CC/C=C\CCO [cis-3-hexen-1-ol]	0.168
c1cnccn1 [pyrazine]	1.05
O=C1CCCCCCCCCCCCCCO1 [pentadecalactone]	1.09
